Laboratory results as given in patent CN117327176A.
These are yes or no findings as the source states them, for the method shown. Some results given as binding are weak or reduced against the parent protein; the word gives no strength.

Amino acid sequences for entries named in this document (tags omitted). Residues count along the entry.
UniProt Q969D9, residues 29-159: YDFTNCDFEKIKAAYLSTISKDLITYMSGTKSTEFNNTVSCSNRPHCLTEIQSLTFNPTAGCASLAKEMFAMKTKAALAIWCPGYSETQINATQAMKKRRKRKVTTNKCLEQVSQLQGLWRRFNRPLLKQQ

biological target: 人源TSLP蛋白 (Thymic stromal lymphopoietin) (human) (UniProt Q969D9); test: ELISA, coated TSLP 1 μg/mL, VHH-hFc titrated, HRP goat anti-hIgG

| Binder | binding |
| --- | --- |
| 4A1 VHH-hFc (Fc fusion, not shown: a dimerising Fc or GST) chain (part 1 of 2): ESGGGSVQAGGSLRLSCATSRYTYNCMGWFRQSPGKEREQVAGIAMGVVTYYADSVKGRFTISQDNGKNTVDLQMDNLKPEDTAMYYCASGPPHYKCYSASGGRYNYWGQGTQVTVSS chain (part 2 of 2): HHHHHH | binds |
| 1F9 VHH-hFc (Fc fusion, not shown: a dimerising Fc or GST) chain (part 1 of 2): ESGGGSVQAGGSLRLSCATSRYTYNCMGWFRQSPGKEREQVAGIAMGVVTYYADSVKGRFTISQDNGKNTVDLQMDNLKPEDTAMYYCAAGPAHYKCYSPSGGRYNYWGQGTQVTVSS chain (part 2 of 2): HHHHHH | binds |
| 1D1 VHH-hFc (Fc fusion, not shown: a dimerising Fc or GST) chain (part 1 of 2): ESGGGSVQVGGSLRLSCATSRFTYGSACMGWFRQSPGKEREQVAGIAMGVVTYYADSVKGRFTISQDNGKNTVDLQMDNLKPEDTAMYYCATGPAHYKCYSASGGRYSDWGQGTQVTVSS chain (part 2 of 2): HHHHHH | binds |
| 27H4 VHH-hFc (Fc fusion, not shown: a dimerising Fc or GST) chain (part 1 of 2): ESGGGSVQAGGSLRLSCATSRFTYGSACMGWFRHAPGKEREQVAGIAMGVVTYYADSVKGRFTISQDNGKNTVDLQMDNLKPEDTAMYYCATGPAHYKCYSPSGGRYNYWGQGTQVTVSS chain (part 2 of 2): HHHHHH | binds |
| 1A7 VHH-hFc (Fc fusion, not shown: a dimerising Fc or GST) chain (part 1 of 2): ESGGGSVQAGGSLRLSCATPRYTYGTSCMGWFRQSPGYQREQVAGIAMGVVTYYADSVKGRFTISQDNGKNTVDLQMDNLKPEDTAMYYCAAGPAHYKCYSASGGRYNYWGQGTQVTVSS chain (part 2 of 2): HHHHHH | binds |
| 2G5 VHH-hFc (Fc fusion, not shown: a dimerising Fc or GST) chain (part 1 of 2): ESGGGSVQAGGSLRLSCATSRFTYGSACMGWFRQSPGKEREQVAGIAMGVVTYYADSVKGRFTISQDNGKNTVDLQMDNLKPEDTAMYYCATGPAHYNCYSASGGRYNYWGQGTQVTVSS chain (part 2 of 2): HHHHHH | binds |
| 1F3 VHH-hFc (Fc fusion, not shown: a dimerising Fc or GST) chain (part 1 of 2): ESGGGSVQAGGSLRLSCATSTSRFTYGSACMGWFRQSPGKEREQVAGIAMGVVTYYADSVKGRFTISQDNGKNTVDLQMDNLKPEDTAMYYCAAGPAHYNCYSASGGRYNYWGQGTQVTVSS chain (part 2 of 2): HHHHHH | binds |
| 1B7 VHH-hFc (Fc fusion, not shown: a dimerising Fc or GST) chain (part 1 of 2): ESGGGSVQAGGSLRLSCTTSGYTYSSNCIGWFRQAPGKEREEIATISRVGEITFYADSVKGRFTISQDNTETTVFLQMNSLKPEDTAVYYCAASPPTYGGCPTRSRDYDKWGQGTQVTVSS chain (part 2 of 2): HHHHHH | binds |

The remaining lines, values ahead:

| binding | Binder |
| --- | --- |
| binds | 1H5 VHH-hFc (Fc fusion, not shown: a dimerising Fc or GST) chain (part 1 of 2): ESGGGLVQPGGSLRLSCATSRYTYNCMGWFRQSPGKEREQVAGIAMGVVTYYADSVKGRFTISQDNGKNTVDLQMDNLKPEDTAMYYCAAGPAHYKCYSPSGGRYNYWGQGTQVTVSS chain (part 2 of 2): HHHHHH |
| binds | 1A6 VHH-hFc (Fc fusion, not shown: a dimerising Fc or GST) chain (part 1 of 2): ESGGGSVQAGGSLRLSCATSRYTYGSSCMAWFRQSPGKEREQVAGIAMGVVTYYADSVKGRFTISQDNGKNTVDLQMDNLKPEDTAMYYCAAGPPHYKCYSVSGGRYNYWGQGTQVTVSS chain (part 2 of 2): HHHHHH |
| binds | 21H6 VHH-hFc (Fc fusion, not shown: a dimerising Fc or GST) chain (part 1 of 2): ESGGGSVQAGGSLRLSCATSRWTYGTACMGWFRQSPGKEREQVAGIAMGVVTYYADSVEGRFTISQDNEKNTVDLQMDNLKPEDTAMYYCATGPAHYKCYSASGGRYNYWGQGTQVTVSS chain (part 2 of 2): HHHHHH |
| binds | 4B2 VHH-hFc (Fc fusion, not shown: a dimerising Fc or GST) chain (part 1 of 2): ESGGGSVQAGGSLRLSCATSRYTYGSACMGWFRQSPGKEREQVAGIAMGVVTYYADSVKGRFTISQDNGKNTVDLQMDNLKPEDTAMYYCAAGPAHYLCYSASGGRYTSWGQGTQVTVSS chain (part 2 of 2): HHHHHH |
| binds | 4F3 VHH-hFc (Fc fusion, not shown: a dimerising Fc or GST) chain (part 1 of 2): ESGGGSVQAGGSLRLSCATSRYTYGSSCMGWFRQSPGKEREQVAGIAMGVVTYYADSVKGRFTISQDNNKNTVDLQMDNLKPEDTAMYYCASGPPHYKCYSASGGRYNYWGQGTQVTVSS chain (part 2 of 2): HHHHHH |
| binds | 23G12 VHH-hFc (Fc fusion, not shown: a dimerising Fc or GST) chain (part 1 of 2): ESGGGSVQAGGSLRLSCATSRFTYGSACMGWFRQSPGKEREQVAGIAMGVVTYYADSVKGRFTISQDNGKNTVDLQMDNLKPEDTAMYYCATGPAHYKCYSASGGRYNYWGQGTQVTVSS chain (part 2 of 2): HHHHHH |
| binds | 2D10 VHH-hFc (Fc fusion, not shown: a dimerising Fc or GST) chain (part 1 of 2): ESGGGSVQAGGSLRLSCATSRFTYGSACMGWFRQSPGKEREQVAGIAMGVVTYYADSVKGRFTISQDNGKNTVDLQMDNLKPDDTAMYYCATGPAHYKCYSASGGRYNYWGQGTQVTVSS chain (part 2 of 2): HHHHHH |
| binds | 214D11 VHH-hFc (Fc fusion, not shown: a dimerising Fc or GST) chain (part 1 of 2): ESGGGSVQAGGSLRLSCATSRFTYGSACMGWFRQSPGKEREQVAGIAMGVVTYYADSVKGRFTISQDNGKNTVDLQMDNLKPEDTAMYYCATGPAHYKCYSASGGRYDAWGQGTQVTVSS chain (part 2 of 2): HHHHHH |
| binds | 2H3 VHH-hFc (Fc fusion, not shown: a dimerising Fc or GST) chain (part 1 of 2): ESGGGSVQAGGSLRLSCATSTSRFTYGSACMGWFRQSPGKEREQVAGIAMGVVTYYADSVKGRFTISQDNGKNTVDLQMDNLKPEDTAMYYCAAGPAHYKCYSASGGRYNIWGQGTQVTVSS chain (part 2 of 2): HHHHHH |
| binds | 212C7 VHH-hFc (Fc fusion, not shown: a dimerising Fc or GST) chain (part 1 of 2): ESGGGLVQPGGSLRLSCATSTSRFTYGSACMGWFRQSPGKEREQVAGIAMGVVTYYADSVKGRFTISQDNGKNTVDLQMDNLKPEDTAMYYCAAGPAHYNCYSASGGRYNYWGQGTQVTVSS chain (part 2 of 2): HHHHHH |
